According to PMC5467213, “Architecture of the RNA polymerase II-Paf1C-TFIIS transcription elongation complex” (Nature Communications, 2017):
Results are given in words; binding and its absence hold for the method and conditions named. Some entries that bind do so weakly or less than the wild type. One block for each molecule: values may come before it.

Amino acid sequences for entries named in this document (tags omitted). A change or cut given only in a name is not applied to a line headed by its entry.
UniProt Q06697: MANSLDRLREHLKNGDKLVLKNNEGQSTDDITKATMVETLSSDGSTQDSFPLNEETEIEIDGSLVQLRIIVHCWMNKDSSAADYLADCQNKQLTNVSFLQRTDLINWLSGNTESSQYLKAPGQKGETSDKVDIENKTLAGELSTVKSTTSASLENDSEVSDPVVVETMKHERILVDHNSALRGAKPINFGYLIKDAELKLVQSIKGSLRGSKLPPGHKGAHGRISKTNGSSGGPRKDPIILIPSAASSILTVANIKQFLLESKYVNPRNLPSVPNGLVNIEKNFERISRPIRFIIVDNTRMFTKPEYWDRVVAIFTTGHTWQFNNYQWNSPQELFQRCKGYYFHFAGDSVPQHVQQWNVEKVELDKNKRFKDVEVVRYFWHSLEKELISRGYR

Columns and labels:
[1] = biological target: Paf1C core (Ctr9-ΔC913, Paf1-ΔC361, Leo1-ΔN118-ΔC376 and Cdc73) (S. cerevisiae) (UniProt P89105+P38351+P38439+Q06697); assay: co-purification after coexpression (Ni-NTA, cation exchange, SEC); subunits coexpressed in E. coli from three vectors, cells colysed; Ni-NTA (hexahistidine tag on Ctr9), HiTrap SP cation exchange, Superose 6 size exclusion; SDS-PAGE, subunits confirmed by mass spectrometry
[2] = biological target: T1, Ctr9-ΔC913 (S. cerevisiae, UniProt P89105 1-913); assay: as above
T1 construct: Ctr9, S. cerevisiae, variant lacking 164 amino acids at its C terminus (Ctr9-ΔC913); also called Ctr9 (in the Pol II-Paf1C-TFIIS EC); source: E. coli BL21 CodonPlus(DE3)RIL, coexpressed with the other subunits; in lysate and purified as part of Paf1C-Ctr9-ΔC913
T1 sequence (looked up): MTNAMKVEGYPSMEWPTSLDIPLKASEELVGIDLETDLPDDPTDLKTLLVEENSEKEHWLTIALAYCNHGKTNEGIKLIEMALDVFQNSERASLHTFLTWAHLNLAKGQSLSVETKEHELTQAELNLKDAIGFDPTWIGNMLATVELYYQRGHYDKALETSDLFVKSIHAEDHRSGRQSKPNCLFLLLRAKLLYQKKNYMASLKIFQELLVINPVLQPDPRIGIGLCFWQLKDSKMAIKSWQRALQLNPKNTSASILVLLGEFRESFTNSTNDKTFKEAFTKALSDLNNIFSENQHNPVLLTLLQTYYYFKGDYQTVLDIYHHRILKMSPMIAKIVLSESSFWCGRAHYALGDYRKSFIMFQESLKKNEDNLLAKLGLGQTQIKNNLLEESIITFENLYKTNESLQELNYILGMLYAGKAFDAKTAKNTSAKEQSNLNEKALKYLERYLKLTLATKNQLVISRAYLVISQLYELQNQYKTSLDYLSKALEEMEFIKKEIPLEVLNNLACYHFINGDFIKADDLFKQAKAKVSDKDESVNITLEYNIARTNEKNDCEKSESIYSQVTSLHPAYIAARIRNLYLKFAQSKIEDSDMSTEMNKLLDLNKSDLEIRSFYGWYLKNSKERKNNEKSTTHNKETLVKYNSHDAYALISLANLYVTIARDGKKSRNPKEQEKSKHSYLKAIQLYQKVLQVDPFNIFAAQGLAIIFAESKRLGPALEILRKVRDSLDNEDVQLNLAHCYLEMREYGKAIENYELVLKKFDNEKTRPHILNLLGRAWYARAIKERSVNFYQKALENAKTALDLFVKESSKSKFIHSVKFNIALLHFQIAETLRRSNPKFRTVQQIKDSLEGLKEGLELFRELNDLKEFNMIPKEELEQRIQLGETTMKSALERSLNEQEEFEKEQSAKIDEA

binding [1]: binds
Molecule: Rtf1-ΔN441 (C-terminal region of Rtf1) (from UniProt P53064 441-558) (domain or fragment)

binding [2]: binds
B1: Leo1-ΔN118-ΔC376 (domain or fragment, UniProt P38439 118-376)
chain: MYTRKFYGEDANNFSDQDETTHTFKEENVELVRHIIPSKANVNETASHNEIFYARIPNFLTIDPIPFDPPSFEAKVNERASNSASREDQLDDRLIDENTVRWRYSRDKDQHVFKESNTQIVQWSDGTYSLKVGEECTDILVNDTSNTFLTVSHDQQELIQCYEGGEIKKTLMFIPTSTNSKIHQKLSKAVIRRNQRQSKGPGTYIVSMDPEVEKKELERKQSQILRDRRRRQLKEKEKQESPDAAFETGFRKQNSPTTY

binding [2]: binds
B2: Paf1-ΔC361 (domain or fragment, UniProt P38351 1-361)
chain: MSKKQEYIAPIKYQNSLPVPQLPPKLLVYPESPETNADSSQLINSLYIKTNVTNLIQQDEDLGMPVDLMKFPGLLNKLDSKLLYGFDNVKLDKDDRILLRDPRIDRLTKTDISKVTFLRRTEYVSNTIAAHDNTSLKRKRRLDDGDSDDENLDVNHIISRVEGTFNKTDKWQHPVKKGVKMVKKWDLLPDTASMDQVYFILKFMGSASLDTKEKKSLNTGIFRPVELEEDEWISMYATDHKDSAILENELEKGMDEMDDDSHEGKIYKFKRIRDYDMKQVAEKPMTELAIRLNDKDGIAYYKPLRSKIELRRRRVNDIIKPLVKEHDIDQLNVTLRNPSTKEANIRDKLRMKFDPINFATV
